These are yes or no findings as the source states them, for the method shown. Binding seen in cells or lysates may run through a third protein. A result given as binding can be weak or reduced; the word gives no strength.
These binders were tested against hexa-histidine-tag fused TseL^PA (Pseudomonas aeruginosa LYSZa7) (assay: pull-down; hexa-histidine-tag fused TseL^PA as bait to find potential toxin targets; 48 proteins pulled out (Table S4); sample and way of identification not told in the text shown).

Row | Binder | binding
1 | sensor protein Lrp (protein, UniProt P0ACJ0 1-164) MVDSKKRPGKDLDRIDRNILNELQKDGRISNVELSKRVGLSPTPCLERVRRLERQGFIQGYTALLNPHYLDASLLVFVEITLNRGAPDVFEQFNTAVQKLEEIQECHLVSGDFDYLLKTRVPDMSAYRKLLGETLLRLPGVNDTRTYVVMEEVKQSNRLVIKTR | binds
2 | membrane protein YajC (protein, UniProt P0ADZ7 1-110) MSFFISDAVAATGAPAQGSPMSLILMLVVFGLIFYFMILRPQQKRTKEHKKLMDSIAKGDEVLTNGGLVGRVTKVAENGYIAIALNDTTEVVIKRDFVAAVLPKGTMKAL | binds
3 | small heat shock protein IpbA (protein, UniProt P0C054 1-137) MRNFDLSPLYRSAIGFDRLFNHLENNQSQSNGGYPPYNVELVDENHYRIAIAVAGFAESELEITAQDNLLVVKGAHADEQKERTYLYQGIAERNFERKFQLAENIHVRGANLVNGLLYIDLERVIPEAKKPRRIEIN | binds
4 | small heat shock protein IpbB (protein, UniProt P0C058 1-142) MRNFDLSPLMRQWIGFDKLANALQNAGESQSFPPYNIEKSDDNHYRITLALAGFRQEDLEIQLEGTRLSVKGTPEQPKEEKKWLHQGLMNQPFSLSFTLAENMEVSGATFVNGLLHIDLIRNEPEPIAAQRIAISERPALNS | binds
5 | HslR (protein, UniProt P0ACG8 1-133) MKEKPAVEVRLDKWLWAARFYKTRALAREMIEGGKVHYNGQRSKPSKIVELNATLTLRQGNDERTVIVKAITEQRRPASEAALLYEETAESVEKREKMALARKLNALTMPHPDRRPDKKERRDLLRFKHGDSE | binds
6 | HslJ (protein, UniProt P52644 1-140) MKKVAAFVALSLLMAGCVSNDKIAVTPEQLQHHRFVLESVNGKPVTSDKNPPEISFGEKMMISGSMCNRFSGEGKLSNGELTAKGLAMTRMMCANPQLNELDNTISEMLKEGAQVDLTANQLTLATAKQTLTYKLADLMN | binds

— paper PMC9927574
